Source: patent US20120156804

Chains of the proteins cited; added tags and fusions are not shown. Residues count along the entry.
UniProt P03372, whole entry: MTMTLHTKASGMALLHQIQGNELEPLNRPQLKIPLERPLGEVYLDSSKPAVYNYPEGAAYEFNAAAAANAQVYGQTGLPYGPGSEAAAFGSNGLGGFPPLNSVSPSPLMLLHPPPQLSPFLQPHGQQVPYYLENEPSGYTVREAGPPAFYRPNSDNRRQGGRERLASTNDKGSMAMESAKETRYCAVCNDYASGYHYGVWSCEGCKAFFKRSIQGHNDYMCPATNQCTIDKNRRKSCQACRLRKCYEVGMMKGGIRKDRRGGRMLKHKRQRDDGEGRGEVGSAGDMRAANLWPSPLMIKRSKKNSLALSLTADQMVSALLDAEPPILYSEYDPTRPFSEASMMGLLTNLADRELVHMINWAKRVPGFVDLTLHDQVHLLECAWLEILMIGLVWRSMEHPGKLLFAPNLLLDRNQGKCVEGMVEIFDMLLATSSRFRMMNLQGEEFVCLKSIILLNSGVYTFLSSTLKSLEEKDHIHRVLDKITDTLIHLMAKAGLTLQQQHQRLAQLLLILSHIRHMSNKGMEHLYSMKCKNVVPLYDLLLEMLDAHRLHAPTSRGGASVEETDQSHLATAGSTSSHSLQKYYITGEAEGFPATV
UniProt Q92731, whole entry: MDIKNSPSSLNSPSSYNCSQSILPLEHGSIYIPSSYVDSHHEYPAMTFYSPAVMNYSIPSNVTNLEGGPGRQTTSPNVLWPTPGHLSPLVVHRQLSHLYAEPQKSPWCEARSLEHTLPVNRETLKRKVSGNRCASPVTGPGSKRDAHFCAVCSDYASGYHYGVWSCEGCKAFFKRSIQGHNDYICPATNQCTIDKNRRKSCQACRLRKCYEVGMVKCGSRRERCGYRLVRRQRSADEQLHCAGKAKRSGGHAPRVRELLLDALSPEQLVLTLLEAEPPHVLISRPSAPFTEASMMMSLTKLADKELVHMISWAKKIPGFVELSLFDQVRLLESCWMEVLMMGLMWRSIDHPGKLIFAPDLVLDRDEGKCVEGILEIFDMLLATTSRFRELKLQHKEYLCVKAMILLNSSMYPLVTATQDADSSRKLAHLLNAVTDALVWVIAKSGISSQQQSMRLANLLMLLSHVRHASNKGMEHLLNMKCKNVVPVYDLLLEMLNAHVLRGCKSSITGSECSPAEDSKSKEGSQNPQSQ
UniProt P02769, 25-607: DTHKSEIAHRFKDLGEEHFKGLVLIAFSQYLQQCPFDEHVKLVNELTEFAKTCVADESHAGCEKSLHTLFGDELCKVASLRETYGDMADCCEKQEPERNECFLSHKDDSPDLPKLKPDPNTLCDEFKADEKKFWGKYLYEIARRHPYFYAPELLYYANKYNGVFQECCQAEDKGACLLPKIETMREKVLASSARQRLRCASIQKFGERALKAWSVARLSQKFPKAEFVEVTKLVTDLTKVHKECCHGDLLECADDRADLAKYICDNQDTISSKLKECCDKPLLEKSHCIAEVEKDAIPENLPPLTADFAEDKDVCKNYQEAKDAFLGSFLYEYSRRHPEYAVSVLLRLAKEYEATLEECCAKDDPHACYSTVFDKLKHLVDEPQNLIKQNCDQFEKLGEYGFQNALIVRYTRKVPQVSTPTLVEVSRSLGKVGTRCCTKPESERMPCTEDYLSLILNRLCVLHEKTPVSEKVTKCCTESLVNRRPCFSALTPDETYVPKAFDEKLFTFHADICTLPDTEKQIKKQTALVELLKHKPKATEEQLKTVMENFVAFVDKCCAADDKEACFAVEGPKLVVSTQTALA

How the values were obtained:
[1] = molecular target: Estrogen receptor alpha (ERα) (Homo sapiens) (UniProt P03372); assay: binding assay; conditions: purified recombinant protein, protein details: PanVera
[2] = molecular target: Estrogen receptor beta (ERβ) (Homo sapiens) (UniProt Q92731); assay: binding assay; conditions: AuNP aggregation assay, purified recombinant protein, protein details: PanVera
[3] = molecular target: Estrogen receptor alpha (ERα) (Homo sapiens) (UniProt P03372); assay: SPR; conditions: immobilized wtERE on gold chip; no dissociation on switching to 20 or 50 mM KCl; purified recombinant protein; protein details: PanVera
[4] = molecular target: Bovine serum albumin (BSA) (UniProt P02769); assay: binding assay; conditions: AuNP aggregation assay; negative control; purified native protein

“GTCCAAAGTCAGTTCACAGTGATCTGATCAAAGT (double strand) [mutERE]”: binds more weakly ([1]; AuNP aggregation assay, order wtERE>mutERE>scrDNA, variant of wtERE); binds more weakly ([2]; order wtERE>mutERE>scrDNA, variant of wtERE).

“GTCCAAAGTCAATCGCCAGCACGATGATCAAAGT (double strand) [scrDNA]”: binds more weakly ([1]; AuNP aggregation assay, no sequence-dependent binding, weak electrostatic contact, more stable than ERα alone, variant of wtERE); binds more weakly ([2]; weak nonspecific binding, more stable than ERβ alone, variant of wtERE).

“GTCCAAAGTCAGGTCACAGTGACCTGATCAAAGT (double strand) [wtERE]”: binds [3]; no binding [4]; binds ([1]; AuNP colorimetric aggregation assay, 2:1 stoichiometry, 80 mM KCl binding buffer pH 7.4, 20 mM KCl final, highest affinity). “GTCCAAAGTCAGGTCACAGTGACCTGATCAAAGT (double strand) [wtERE]”: binds ([2]; 4:1 stoichiometry, 20 mM KCl final).

For “TCCCCCTGCAAGGTCACGGTGGCCACCCCGTGAG (double strand) [pS2 ERE]”, the binding signal (% less stable than wtERE) ([1]; AuNP aggregation assay, A650 difference, 50 mM KCl final) was 19.

For part of these data: The comparison behind a weaker result is the experiment's own reference, which may not be listed here. Construct, isoform or probe ends are uncertain for at least one entry. For part of these data: A negative result means that nothing was seen under these conditions. For part of these data: Whether high values mean tight binding is not given here for every scale.
